# PubChem BioAssay AID1159578 | Peter MacCallum Cancer Centre, 2015
# Assay: 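siRNA pools altering how lymphatic endothelial cells close a scratch wound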 (primary screen)
# Cells: human lymphatic endothelial cells
# Reagents: siRNA pool against human genes, 40 nM
# Duration: 48 h after transfection
# Measurement: 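Cells stained with dye and imaged after a scratch; covered wound area and nuclei counted, duplicates averaged, migration set against mock wells and turned into a robust z-score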
# Reading the numbers: migration robust z-score: higher = faster migration into the scratch; migration relative to mock: higher = more scratch area covered than mock; nuclei per well: higher = more cells in the well
# Active means: 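Pools averaging fewer than 3300 nuclei are never called; remaining pools count as changed when migration robust z lies outside -2 to 2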
# Meaning of the calls: active = migration changed; inactive = no migration change, or too few cells
# In all, the deposit lists about 18,000 reagents; below is a random part of them. Over the whole deposit, about 1,030 (5.7%) got an active call. 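Inactive calls also include pools with fewer than 3300 nuclei, whose migration was not assessed.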 Raw values are not corrected between plates. Entries without a mark were called inactive. The numbers tell different reagents against one gene apart.
gene symbol,reagent,migration robust z-score,migration class with cell-count check,migration relative to mock,"nuclei per well, duplicate mean"
CREB5 (cAMP responsive element binding protein 5),1,0.24,migration z between -2 and 2; enough cells,0.94,6420
CYP27A1 (cytochrome P450 family 27 subfamily A member 1),1,0.02,migration z between -2 and 2; enough cells,0.81,5106
GPR78 (G protein-coupled receptor 78),1,0,migration z between -2 and 2; enough cells,0.8,6753
ERMN (ermin),1,-1.17,migration z between -2 and 2; enough cells,0.58,5055
SULT1C4 (sulfotransferase family 1C member 4),1,-0.26,migration z between -2 and 2; enough cells,0.76,6353
COPB1 (coat protein complex I subunit beta 1),1,-4.87,under 3300 nuclei; migration not judged,-0.41,1886
TMEM126B (transmembrane protein 126B),1,-0.52,migration z between -2 and 2; enough cells,0.76,5707
CCDC170 (coiled-coil domain containing 170),1,-0.56,migration z between -2 and 2; enough cells,0.74,5786
CFAP47 (cilia and flagella associated protein 47),1,0.25,migration z between -2 and 2; enough cells,0.95,6174
CFAP47 (cilia and flagella associated protein 47),2,0.7,migration z between -2 and 2; enough cells,1.06,6600
FN1 (fibronectin 1),1,-0.57,migration z between -2 and 2; enough cells,0.7,5983
MT1G (metallothionein 1G),1,1.75,migration z between -2 and 2; enough cells,1.34,5308
MICU1 (mitochondrial calcium uptake 1),1,-0.08,under 3300 nuclei; migration not judged,0.86,2656
ZNF394 (zinc finger protein 394),1,1.33,migration z between -2 and 2; enough cells,1.23,5740
CFAP69 (cilia and flagella associated protein 69),1,0.7,migration z between -2 and 2; enough cells,1.07,5649
SUGP2 (SURP and G-patch domain containing 2),1,-0.22,migration z between -2 and 2; enough cells,0.84,7644
PPP2R5A (protein phosphatase 2 regulatory subunit B'alpha),1,0.31,migration z between -2 and 2; enough cells,0.86,5200
SPINK2 (serine peptidase inhibitor Kazal type 2),1,-0.64,migration z between -2 and 2; enough cells,0.72,4611
GEMIN7 (gem nuclear organelle associated protein 7),1,0.57,migration z between -2 and 2; enough cells,1.04,5616
TET1 (tet methylcytosine dioxygenase 1),1,-1.84,migration z between -2 and 2; enough cells,0.42,4016
RPS6KA1 (ribosomal protein S6 kinase A1),1,0.26,migration z between -2 and 2; enough cells,0.86,6024
IPO13 (importin 13),1,0.5,migration z between -2 and 2; enough cells,1.02,5968
SRY (sex determining region Y),1,0.28,migration z between -2 and 2; enough cells,0.96,6717

Looked up above:
ERMN (ermin), migration relative to mock = 0.58
Result of CFAP47 (cilia and flagella associated protein 47) #1 in “migration relative to mock”: 0.95
